For one substance, binding results are on record in paper PMC11116421.

Chains of the proteins cited; added tags and fusions are not shown.
UniProt Q501J6: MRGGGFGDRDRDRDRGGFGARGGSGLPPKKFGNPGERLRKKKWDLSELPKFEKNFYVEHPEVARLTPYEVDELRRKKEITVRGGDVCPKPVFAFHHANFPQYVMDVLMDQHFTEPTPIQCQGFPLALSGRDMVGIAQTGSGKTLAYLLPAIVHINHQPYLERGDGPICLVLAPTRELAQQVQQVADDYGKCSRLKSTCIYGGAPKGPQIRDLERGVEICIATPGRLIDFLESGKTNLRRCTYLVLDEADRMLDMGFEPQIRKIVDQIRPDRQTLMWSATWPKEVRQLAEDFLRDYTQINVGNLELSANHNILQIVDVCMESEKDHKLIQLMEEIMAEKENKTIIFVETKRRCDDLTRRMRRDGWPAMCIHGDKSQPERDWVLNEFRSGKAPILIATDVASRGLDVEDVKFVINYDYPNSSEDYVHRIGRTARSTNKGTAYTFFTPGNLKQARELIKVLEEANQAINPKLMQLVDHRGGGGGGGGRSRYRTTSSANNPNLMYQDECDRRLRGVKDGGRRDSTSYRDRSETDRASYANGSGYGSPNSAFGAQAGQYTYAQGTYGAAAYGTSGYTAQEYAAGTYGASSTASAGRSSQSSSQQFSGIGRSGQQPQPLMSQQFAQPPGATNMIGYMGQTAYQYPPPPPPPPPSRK

For the assay, the target named is DEAD-box helicase 17 (DDX17) (mouse (endogenous in NMVMs)) (UniProt Q501J6). The assay can be described thus: co-IP; Pierce Classic IP Kit; NMVMs (control and Ddx17-cKO), 5 x 10^6 cells per IP; precipitated with DDX17 antibody and, in turn, with BCL6 antibody; SDS-PAGE and blot.

These are yes or no findings as the source states them, for the method shown. Binding seen in cells or lysates may run through a third protein. Some binding calls cover weakened binding; strength is not graded here.

Regarding “B-cell lymphoma 6 (BCL6) (from UniProt P41183 1-707)”, the binding result was “binds”.
